The supplement of paper PMC4604168 (melanoma cell lines)
Some of the results follow. Many values rest on one well or one pass, so single values are uncertain.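 The apoptosis fraction was the count of cleaved-PARP antibody-stained nuclei relative to all DNA-stained nuclei, imaged in 1,536-well plates. Screening doses were set so most cells survived, and baseline and induced cleaved-PARP levels vary greatly across cell lines.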

Experiments:
Assay in all cases: cleaved PARP positive nuclei fraction relative to DMSO control; melanoma cells; higher = more apoptosis
Conditions in all cases: library dose: low library concentration; 72 h
501Mel = tested on: 501Mel
A101D = tested on: A101D
A2058 = tested on: A2058
A375 = tested on: A375
C32 = tested on: C32
CBRC008 = tested on: CBRC008 (line from a melanoma biopsy)
CBRC013 = tested on: CBRC013 (line from a melanoma biopsy)
CBRC014 = tested on: CBRC014 (line from a melanoma biopsy)
CBRC016 = tested on: CBRC016 (line from a melanoma biopsy)
CBRC017 = tested on: CBRC017 (line from a melanoma biopsy)
COLO792 = tested on: COLO792
COLO800 = tested on: COLO800
COLO829 = tested on: COLO829
G361 = tested on: G361
IPC-298 = tested on: IPC-298
IST-MEL1 = tested on: IST-MEL1
LB2518-MEL = tested on: LB2518-MEL
LOXIMVI = tested on: LOXIMVI
MEL-HO = tested on: MEL-HO

SMILES | cleaved PARP positive nuclei fraction (501Mel) [%] | cleaved PARP positive nuclei fraction (A101D) [%] | cleaved PARP positive nuclei fraction (A2058) [%] | cleaved PARP positive nuclei fraction (A375) [%] | cleaved PARP positive nuclei fraction (C32) [%] | cleaved PARP positive nuclei fraction (CBRC008) [%] | cleaved PARP positive nuclei fraction (CBRC013) [%] | cleaved PARP positive nuclei fraction (CBRC014) [%] | cleaved PARP positive nuclei fraction (CBRC016) [%] | cleaved PARP positive nuclei fraction (CBRC017) [%] | cleaved PARP positive nuclei fraction (COLO792) [%] | cleaved PARP positive nuclei fraction (COLO800) [%] | cleaved PARP positive nuclei fraction (COLO829) [%] | cleaved PARP positive nuclei fraction (G361) [%] | cleaved PARP positive nuclei fraction (IPC-298) [%] | cleaved PARP positive nuclei fraction (IST-MEL1) [%] | cleaved PARP positive nuclei fraction (LB2518-MEL) [%] | cleaved PARP positive nuclei fraction (LOXIMVI) [%] | cleaved PARP positive nuclei fraction (MEL-HO) [%]
Nc1ncn([C@H]2C[C@H](O)[C@@H](CO)O2)c(=O)n1 [decitabine] + Cc1cc(N2CCOCC2)cc2[nH]c(-c3c(NC[C@@H](O)c4cccc(Cl)c4)cc[nH]c3=O)nc12 [BMS536924] (first compound 0.1 µM, partner dose 0.2 µM) | 91.4 | 120 | 204 | 78.8 | 56 | 335 | 251 | 72.3 | 75.4 | 79.2 | 98.5 | 78.6 | 94.7 | 34.1 | 141 | 33.7 | 112 | 125 | 69.2
Nc1ncn([C@H]2C[C@H](O)[C@@H](CO)O2)c(=O)n1 [decitabine] + OCCn1cc(-c2cnc3nnn(Cc4ccc5ncccc5c4)c3n2)cn1 [PF04217903] (first compound 0.1 µM, partner dose 1 µM) | 148 | 98.4 | 107 | 67.3 | 82.3 | 173 | 99.4 | 99.6 | 198 | 56 | 297 | 199 | 229 | 104 | 87.4 | 76.4 | 60.5 | 45.5 | 82.1
O=C(O)[C@@H]1[O][Sb](=[O])([O][Sb]2(=[O])[O][C@H]([C@H](O)CO)[C@H](O)[C@H](C(=O)O)[O]2)[O][C@H]([C@H](O)CO)[C@@H]1O (some centres not stated) [stibogluconate] + O=C(CCCCCCC(=O)Nc1ccccc1)NO [vorinostat] (first compound 2 µM, partner dose 0.08 µM) | 371 | 70 | 29.5 | 63.6 | 103 | 53.5 | 124 | 83.8 | 106 | 95.4 | 77.4 | 41 | 58.6 | 47.1 | 94.7 | 63.1 | 63.6 | 71.9 | 148
Cc1cc(Nc2cc(N3CCN(C)CC3)nc(/C=C/c3ccccc3)n2)n[nH]1 + CN(C)S(=O)(=O)c1ccc2c(c1)/C(=C/c1cc3c([nH]1)CCCC3)C(=O)N2 [SU6656] (first compound 0.04 µM, partner dose 0.4 µM) | 91 | 25 | 172 | 179 | 103 | 49.6 | 120 | 109 | 108 | 110 | 126 | 103 | 133 | 152 | 67.5 | 50.3 | 202 | 113 | 117
CNC(=O)c1cc(Oc2ccc(NC(=O)Nc3ccc(Cl)c(C(F)(F)F)c3)cc2)ccn1 [sorafenib] + NCC(=O)Nc1ccc(-n2nc(C(F)(F)F)cc2-c2ccc3c(ccc4ccccc43)c2)cc1 [OSU03012] (first compound 0.4 µM, partner dose 1 µM) | 219 | 54 | 303 | 6090 | 90.6 | 33 | 76.8 | 92.4 | 76.5 | 91.2 | 100 | 121 | 106 | 138 | 57.4 | 52.8 | 85.9 | 96.7 | 65.7
CCCS(=O)(=O)Nc1ccc(F)c(C(=O)c2c[nH]c3ncc(Cl)cc23)c1F + OCCn1cc(-c2cnc3nnn(Cc4ccc5ncccc5c4)c3n2)cn1 [PF04217903] (first compound 0.08 µM, partner dose 1 µM) | 111 | 77.2 | 87.7 | 275 | 29.9 | 111 | 119 | 93.2 | 57 | 93.1 | 49.9 | 81.4 | 150 | 152 | 43.1 | 97.6 | 87.6 | 66.5 | 73.7
Cc1cc(Nc2cc(N3CCN(C)CC3)nc(/C=C/c3ccccc3)n2)n[nH]1 + NC(=O)Nc1cc(-c2cccc(F)c2)sc1C(=O)N[C@H]1CCCNC1 [AZD7762] (first compound 0.04 µM, partner dose 0.02 µM) | 105 | 55.4 | 131 | 70.2 | 113 | 54.6 | 127 | 72 | 45.9 | 121 | 112 | 122 | 118 | 58.2 | 142 | 126 | 80.9 | 51.1 | 125
Nc1ccn([C@@H]2O[C@H](CO)[C@@H](O)C2(F)F)c(=O)n1 [gemcitabine] + O=C(O)c1ccc(-c2c[nH]c3ncc(-c4ccccc4)cc23)cc1C1CCCC1 [GSK650394] (first compound 0.0004 µM, partner dose 0.16 µM) | 75.1 | 44.1 | 64.2 | 36 | 7.72 | 427 | 74.1 | 151 | 283 | 116 | 297 | 79.6 | 204 | 50.1 | 90.4 | 42 | 90.5 | 109 | 163

Look-ups from above:
cleaved PARP positive nuclei fraction (MEL-HO) [%], Nc1ncn([C@H]2C[C@H](O)[C@@H](CO)O2)c(=O)n1 [decitabine] + OCCn1cc(-c2cnc3nnn(Cc4ccc5ncccc5c4)c3n2)cn1 [PF04217903] (first compound 0.1 µM, partner dose 1 µM) reads 82.1
cleaved PARP positive nuclei fraction (CBRC017) [%], Nc1ncn([C@H]2C[C@H](O)[C@@H](CO)O2)c(=O)n1 [decitabine] + Cc1cc(N2CCOCC2)cc2[nH]c(-c3c(NC[C@@H](O)c4cccc(Cl)c4)cc[nH]c3=O)nc12 [BMS536924] (first compound 0.1 µM, partner dose 0.2 µM) reads 79.2
